Consider eight substances from paper PMC8163975.

By UniProt entry, the sequences of proteins in these tests, tags left out. Residues count along the entry.
UniProt P50749, residues 176-264: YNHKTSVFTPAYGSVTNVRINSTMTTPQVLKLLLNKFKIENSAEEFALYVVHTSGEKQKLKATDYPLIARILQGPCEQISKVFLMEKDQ
UniProt Q86WH2, residues 79-187: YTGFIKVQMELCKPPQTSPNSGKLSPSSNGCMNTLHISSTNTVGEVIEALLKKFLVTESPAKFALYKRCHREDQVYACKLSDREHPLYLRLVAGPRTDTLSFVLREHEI
UniProt Q9H2L5, residues 174-262: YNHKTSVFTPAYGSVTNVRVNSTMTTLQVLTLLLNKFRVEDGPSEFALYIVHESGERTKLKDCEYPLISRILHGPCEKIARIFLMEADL
UniProt Q5EBH1, residues 200-358: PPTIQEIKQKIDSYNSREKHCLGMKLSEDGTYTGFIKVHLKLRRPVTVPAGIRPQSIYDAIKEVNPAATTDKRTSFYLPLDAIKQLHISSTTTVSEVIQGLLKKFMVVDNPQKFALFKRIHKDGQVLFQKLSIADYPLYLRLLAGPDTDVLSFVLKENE
UniProt Q6ZTQ3, residues 218-306: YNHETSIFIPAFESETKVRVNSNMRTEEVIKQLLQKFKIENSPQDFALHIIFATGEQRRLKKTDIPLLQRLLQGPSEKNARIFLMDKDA
UniProt Q02833, residues 6-89: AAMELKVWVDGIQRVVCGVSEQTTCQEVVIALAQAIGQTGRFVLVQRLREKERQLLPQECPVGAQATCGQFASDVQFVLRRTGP
UniProt O75901, residues 25-119: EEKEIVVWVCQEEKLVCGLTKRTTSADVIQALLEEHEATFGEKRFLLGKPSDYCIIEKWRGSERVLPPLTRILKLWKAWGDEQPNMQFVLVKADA
UniProt Q92963: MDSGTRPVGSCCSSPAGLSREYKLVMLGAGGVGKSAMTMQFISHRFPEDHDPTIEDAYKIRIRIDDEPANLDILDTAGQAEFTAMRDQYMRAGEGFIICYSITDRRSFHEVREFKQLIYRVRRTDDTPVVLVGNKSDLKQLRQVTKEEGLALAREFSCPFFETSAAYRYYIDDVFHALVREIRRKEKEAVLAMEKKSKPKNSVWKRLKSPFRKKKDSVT

These are yes or no findings as the source states them, for the method shown. For some assays here: In cells and extracts the contact can be indirect. Some entries that bind do so weakly or less than the wild type.

The target in one assay is RHEB1•mGppNHp (human) (UniProt Q15382). The assay can be described thus: fluorescence polarisation; increasing concentrations of RA/RB domains as MBP fusions (0.002–300 μM) added to mGppNHp-bound RAS proteins (1 μM); 30 mM Tris-HCl pH 7.4, 100 mM NaCl, 5 mM MgCl2, 3 mM DTT; quadratic ligand-binding equation; both purified.
Regarding “CRAF RB domain, MBP fusion (from UniProt P04049 51-131) (domain or fragment)”, the binding result is “binds”.
Turning to “RASSF2 RA domain, MBP fusion (from UniProt P50749 176-264) (domain or fragment)”, the binding result is recorded as “binds weakly”.
Same read-out and setting: then “RASSF3 RA domain, MBP fusion (from UniProt Q86WH2 79-187) (domain or fragment)”, with “binds weakly”.
On the same count and under the same terms, then “RASSF4 RA domain, MBP fusion (from UniProt Q9H2L5 174-262) (domain or fragment)”, with “binds weakly”; and “RASSF5 RA domain, His-tagged MBP fusion (from UniProt Q5EBH1 200-358) (domain or fragment)”, with “binds weakly”; and “RASSF6 RA domain, MBP fusion (from UniProt Q6ZTQ3 218-306) (domain or fragment)”, with “binds weakly”.
On the same count and under the same terms, as for “RASSF7 RA domain, His-tagged MBP fusion (from UniProt Q02833 6-89) (domain or fragment)”, the entry is “binds weakly”.

Another assay has as its target RASSF9 RA domain, His-tagged MBP fusion (human) (UniProt O75901). Description: pull-down; 20 μg His-tagged MBP-RASSF RA domains coupled to Ni-NTA beads, 200 μg lysate of transfected HEK 293T cells, 30 min at 4 °C; immunoblot anti-HA or anti-FLAG; only the target purified.
Consider “HA-tagged RIT1 (from UniProt Q92963 1-219)”, for which the binding result was “binds”.
